These are literature values, as cited in US12582717B2, “Protein based excipient for active pharmaceutical ingredients” (ROUSSELOT B.V., priority 2016, dated 2026).

Read-outs that look alike come from different tables or passages of the source.

The conditions of the data set: cited from earlier work.

Regarding `CC(C)Cc1ccc(C(C)C(=O)O)cc1` (centres unmarked) [Ibuprofen], the solubility entry is reported as “low solubility” (pH 4.5) and “high solubility” (pH 6.8).
